Source: PMC9794026
No constants are given. Whether binding was seen depends on the method and setting.

Amino acid sequences for entries named in this document (tags omitted).
UniProt Q8Y565: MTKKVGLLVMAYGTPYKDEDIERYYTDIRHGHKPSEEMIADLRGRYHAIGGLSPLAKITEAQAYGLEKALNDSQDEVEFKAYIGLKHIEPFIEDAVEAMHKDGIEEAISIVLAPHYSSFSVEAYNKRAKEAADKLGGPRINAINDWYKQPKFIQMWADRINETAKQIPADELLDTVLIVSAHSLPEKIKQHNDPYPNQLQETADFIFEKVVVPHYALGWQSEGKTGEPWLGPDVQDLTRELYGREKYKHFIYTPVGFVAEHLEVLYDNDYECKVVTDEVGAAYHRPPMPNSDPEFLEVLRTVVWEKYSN

Target: Coproporphyrin ferrochelatase from Listeria monocytogenes, wild-type (Listeria monocytogenes) (UniProt Q8Y565)
Test: SEC-MALS; HPLC (Shimadzu prominence LC20)-SEC (Superdex 200 10/300)-MALS (Wyatt Heleos Dawn8+); samples checked for purity and monomeric state; both purified

Substance: Coproporphyrin ferrochelatase from Listeria monocytogenes, wild-type (from UniProt Q8Y565 1-309) (enzyme)
- binding: no binding
